According to PMC9156729:
No constants are given. Whether binding was seen depends on the method and setting. Binding seen in cells or lysates may run through a third protein. For some of these results: A result given as binding can be weak or reduced; the word gives no strength. Where a sequence is shown, tags or fusion partners need not be part of it. Values belong to the molecule of their own block, whether it stands above or below them.

Key:
HA-ASCT2, wild type = biological target: T1, HA-ASCT2, wild type (UniProt Q15758); assay: co-IP; HEK293 cells transfected with plasmids; IP lysis buffer (50 mM Tris-HCl pH 8.0, 120 mM NaCl, 0.5% NP40, 1 mM EDTA); HA antibody overnight at 4 °C; immunoblot
T1 sequence: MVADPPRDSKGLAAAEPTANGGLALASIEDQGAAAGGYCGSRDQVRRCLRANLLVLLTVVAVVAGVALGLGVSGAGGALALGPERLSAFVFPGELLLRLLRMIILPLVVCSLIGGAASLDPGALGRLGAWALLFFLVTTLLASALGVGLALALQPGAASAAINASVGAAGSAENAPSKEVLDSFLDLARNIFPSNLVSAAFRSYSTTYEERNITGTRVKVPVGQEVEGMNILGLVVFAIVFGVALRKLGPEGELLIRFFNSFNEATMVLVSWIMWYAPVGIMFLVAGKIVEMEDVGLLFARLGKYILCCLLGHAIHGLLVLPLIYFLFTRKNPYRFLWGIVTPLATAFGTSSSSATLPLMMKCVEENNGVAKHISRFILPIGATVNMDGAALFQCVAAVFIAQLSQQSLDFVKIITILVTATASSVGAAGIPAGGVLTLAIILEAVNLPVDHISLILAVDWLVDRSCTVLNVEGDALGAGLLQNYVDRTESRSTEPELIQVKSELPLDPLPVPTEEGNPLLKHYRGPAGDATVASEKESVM

FLAG-SPOPΔMATH = assay: co-IP; HEK293 cells transfected with plasmids; IP lysis buffer (50 mM Tris-HCl pH 8.0, 120 mM NaCl, 0.5% NP40, 1 mM EDTA); FLAG-agarose beads overnight at 4 °C; immunoblot
FLAG-SPOPΔBTB = assay: as above

binding (HA-ASCT2, wild type): binds
Molecule: FLAG-SPOPΔBTB (domain or fragment)

binding (HA-ASCT2, wild type): no binding
Molecule: FLAG-SPOPΔMATH (domain or fragment)

binding (FLAG-SPOPΔMATH): no binding
binding (FLAG-SPOPΔBTB): binds
B1: HA-ASCT2, wild type (protein, UniProt Q15758 1-541)
chain: T1 sequence
